The results in this text go back to the supplement of paper PMC10077471.

Whole data set: some 1,900 compounds, median “excess over highest single agent (ExcessHSA) synergy score, 6x6 matrix” near -83, cut for the lowest 2% near -370. The list shows a part of the results.

This experiment deals with NCI-H446. The experiment can be described thus: excess over highest single agent (ExcessHSA) synergy score, 6x6 matrix; higher = less synergy (more negative = stronger synergy). The following applies: 72 h; CellTiter-Glo viability. In general terms: ATP-based viability assays read luminescence as a measure of living cells.
For `Cc1[nH]c(/C=C2\C(=O)Nc3ccccc32)c(C)c1CCC(=O)O` + Cc1sc2c(c1C)C(c1ccc(Cl)cc1)=N[C@@H](CC(=O)OC(C)(C)C)c1nnc(C)n1-2 [NCGC00250412-19], the “excess over highest single agent” value was -45.6.
Take `CO[C@H]1C[C@@H]2CC[C@@H](C)[C@@](O)(O2)C(=O)C(=O)N2CCCC[C@H]2C(=O)O[C@H]([C@H](C)C[C@@H]2CC[C@@H](O)[C@H](OC)C2)CC(=O)[C@H](C)/C=C(\C)[C@@H](O)[C@@H](OC)C(=O)[C@H](C)C[C@H](C)/C=C/C=C/C=C/1C` + Cc1sc2c(c1C)C(c1ccc(Cl)cc1)=N[C@@H](CC(=O)OC(C)(C)C)c1nnc(C)n1-2 [NCGC00250412-19]: the “excess over highest single agent” value was -737.
The value for `CCN(CC)CCn1c(=O)c(Cc2ccc(OC)cc2)nc2ccccc21` + Cc1sc2c(c1C)C(c1ccc(Cl)cc1)=N[C@@H](CC(=O)OC(C)(C)C)c1nnc(C)n1-2 [NCGC00250412-19] was -47.3.
In the case of `C[C@@H]1CC[C@H]2[C@@H](C)C(=O)O[C@@H]3O[C@@]4(C)CC[C@@H]1[C@]32OO4` + Cc1sc2c(c1C)C(c1ccc(Cl)cc1)=N[C@@H](CC(=O)OC(C)(C)C)c1nnc(C)n1-2 [NCGC00250412-19], the “excess over highest single agent” value was -183.
As to `Oc1cc(-c2nc(-c3ccccc3)[nH]c2-c2ccncc2)ccc1Cl` + Cc1sc2c(c1C)C(c1ccc(Cl)cc1)=N[C@@H](CC(=O)OC(C)(C)C)c1nnc(C)n1-2 [NCGC00250412-19], the “excess over highest single agent” value was -50.
Under `CC(C)[C@H](C(=O)Nc1ccc(C(=O)NO)cc1)c1ccccc1` + Cc1sc2c(c1C)C(c1ccc(Cl)cc1)=N[C@@H](CC(=O)OC(C)(C)C)c1nnc(C)n1-2 [NCGC00250412-19] stands -112; under `CNC1CCC(N(Cc2cccc(-c3ccncc3)c2)C(=O)c2sc3ccccc3c2Cl)CC1` (configuration not stated) + Cc1sc2c(c1C)C(c1ccc(Cl)cc1)=N[C@@H](CC(=O)OC(C)(C)C)c1nnc(C)n1-2 [NCGC00250412-19], -119; under `NC(=O)c1ccc2nc(-c3ccc(Oc4ccc(Cl)cc4)cc3)[nH]c2c1` + Cc1sc2c(c1C)C(c1ccc(Cl)cc1)=N[C@@H](CC(=O)OC(C)(C)C)c1nnc(C)n1-2 [NCGC00250412-19], 83.3.
Under `CC(=O)NCC(=O)N1[C@@H]2CC[C@H]1c1ccc(Nc3ncc(C(F)(F)F)c(NC4CCC4)n3)cc12` + Cc1sc2c(c1C)C(c1ccc(Cl)cc1)=N[C@@H](CC(=O)OC(C)(C)C)c1nnc(C)n1-2 [NCGC00250412-19] stands -534.
In the case of `C=CCc1cc(OC)c(O)c(C(=O)NCCO)c1` + Cc1sc2c(c1C)C(c1ccc(Cl)cc1)=N[C@@H](CC(=O)OC(C)(C)C)c1nnc(C)n1-2 [NCGC00250412-19], the “excess over highest single agent” value turned out to be 33.1.
`Cc1cc2c(cc1C1(c3ccc(C(=O)O)cn3)CC1)C(C)(C)CCC2(C)C` + Cc1sc2c(c1C)C(c1ccc(Cl)cc1)=N[C@@H](CC(=O)OC(C)(C)C)c1nnc(C)n1-2 [NCGC00250412-19]: the “excess over highest single agent” value was -297.
As to `NC(=O)c1cccc2[nH]c(-c3ccc(C4CCCN4)cc3F)nc12` (configuration not stated) + Cc1sc2c(c1C)C(c1ccc(Cl)cc1)=N[C@@H](CC(=O)OC(C)(C)C)c1nnc(C)n1-2 [NCGC00250412-19], the “excess over highest single agent” value was -20.3.
In the case of `Cc1cc(C(=O)N2CCN(c3cccc(Cl)c3)CC2)n(-c2ccccc2)n1` + Cc1sc2c(c1C)C(c1ccc(Cl)cc1)=N[C@@H](CC(=O)OC(C)(C)C)c1nnc(C)n1-2 [NCGC00250412-19], the “excess over highest single agent” value is -153.
As to `COc1cc2c(cc1O)CC[C@@H]1[C@@H]2CC[C@]2(C)[C@@H](O)CC[C@@H]12` + Cc1sc2c(c1C)C(c1ccc(Cl)cc1)=N[C@@H](CC(=O)OC(C)(C)C)c1nnc(C)n1-2 [NCGC00250412-19], the “excess over highest single agent” value was -161.
For `Clc1ccccc1CN1CCc2sccc2C1` + Cc1sc2c(c1C)C(c1ccc(Cl)cc1)=N[C@@H](CC(=O)OC(C)(C)C)c1nnc(C)n1-2 [NCGC00250412-19], the “excess over highest single agent” value was found to be 84.7.
For `COC(=O)N1CCN(Cc2cccc(NC(=O)Nc3ccc(C)nc3)c2F)CC1` + Cc1sc2c(c1C)C(c1ccc(Cl)cc1)=N[C@@H](CC(=O)OC(C)(C)C)c1nnc(C)n1-2 [NCGC00250412-19], the “excess over highest single agent” value was -134.
With `CN(C)CCCN1c2ccccc2CCc2ccc(Cl)cc21` + Cc1sc2c(c1C)C(c1ccc(Cl)cc1)=N[C@@H](CC(=O)OC(C)(C)C)c1nnc(C)n1-2 [NCGC00250412-19], the “excess over highest single agent” value is -47.1.
Regarding `c1cc(-c2sc(-c3ccncc3)c(-c3ccncc3)c2-c2ccncc2)ccn1` + Cc1sc2c(c1C)C(c1ccc(Cl)cc1)=N[C@@H](CC(=O)OC(C)(C)C)c1nnc(C)n1-2 [NCGC00250412-19], the “excess over highest single agent” value was -182.
As for `CNC(=O)c1ccc2cc([C@@]3(O)CCn4cncc43)ccc2c1` + Cc1sc2c(c1C)C(c1ccc(Cl)cc1)=N[C@@H](CC(=O)OC(C)(C)C)c1nnc(C)n1-2 [NCGC00250412-19], the “excess over highest single agent” value is -173.
With `CS(=O)(=O)c1ccc([C@@H](O)[C@@H](CO)NC(=O)C(Cl)Cl)cc1` + Cc1sc2c(c1C)C(c1ccc(Cl)cc1)=N[C@@H](CC(=O)OC(C)(C)C)c1nnc(C)n1-2 [NCGC00250412-19], the “excess over highest single agent” value is -36.6.
Take `C[C@]12C=CC(=O)C=C1CC[C@@H]1[C@@H]2[C@@H](O)C[C@@]2(C)[C@H]1CC[C@]2(O)C(=O)CO` + Cc1sc2c(c1C)C(c1ccc(Cl)cc1)=N[C@@H](CC(=O)OC(C)(C)C)c1nnc(C)n1-2 [NCGC00250412-19]: the “excess over highest single agent” value is -35.3.
On to `O=c1ncn2nc(Sc3ccc(F)cc3F)ccc2c1-c1c(Cl)cccc1Cl` + Cc1sc2c(c1C)C(c1ccc(Cl)cc1)=N[C@@H](CC(=O)OC(C)(C)C)c1nnc(C)n1-2 [NCGC00250412-19], for which the “excess over highest single agent” value was -16.5.
On to `O=c1[nH]cc(F)c(=O)[nH]1` + Cc1sc2c(c1C)C(c1ccc(Cl)cc1)=N[C@@H](CC(=O)OC(C)(C)C)c1nnc(C)n1-2 [NCGC00250412-19], for which the “excess over highest single agent” value amounted to 42.1.
For the compound `CN[C@@H](C)[C@H]1[C@H](O)C[C@@]2(C)[C@@H]3CC[C@H]4C(C)(C)[C@@H](NC)CC[C@@]45C[C@@]35CC[C@]12C` + Cc1sc2c(c1C)C(c1ccc(Cl)cc1)=N[C@@H](CC(=O)OC(C)(C)C)c1nnc(C)n1-2 [NCGC00250412-19], the “excess over highest single agent” value was -149.
Turning to `CN(C)NC(=O)CCC(=O)O` + Cc1sc2c(c1C)C(c1ccc(Cl)cc1)=N[C@@H](CC(=O)OC(C)(C)C)c1nnc(C)n1-2 [NCGC00250412-19], the “excess over highest single agent” value was -133.
Take `C[C@@H](c1ncncc1F)[C@](O)(Cn1cncn1)c1ccc(F)cc1F` + Cc1sc2c(c1C)C(c1ccc(Cl)cc1)=N[C@@H](CC(=O)OC(C)(C)C)c1nnc(C)n1-2 [NCGC00250412-19]: the “excess over highest single agent” value is -54.8.
As to `Cc1c(NC(=O)c2ccc(C(C)(C)C)cc2)cccc1-c1cn(C)c(=O)c(Nc2ccc(C(=O)N3CCOCC3)cc2)n1` + Cc1sc2c(c1C)C(c1ccc(Cl)cc1)=N[C@@H](CC(=O)OC(C)(C)C)c1nnc(C)n1-2 [NCGC00250412-19], the “excess over highest single agent” value was -90.9.
Consider `O=C(O)Cc1ccccc1Nc1c(Cl)cccc1Cl` + Cc1sc2c(c1C)C(c1ccc(Cl)cc1)=N[C@@H](CC(=O)OC(C)(C)C)c1nnc(C)n1-2 [NCGC00250412-19], for which the “excess over highest single agent” value was -76.1.
In the case of `C[C@@H]1CC(=O)NN=C1c1ccc(NN=C(C#N)C#N)cc1` + Cc1sc2c(c1C)C(c1ccc(Cl)cc1)=N[C@@H](CC(=O)OC(C)(C)C)c1nnc(C)n1-2 [NCGC00250412-19], the “excess over highest single agent” value was -157.
As for `CN(C)CCCNC(=O)c1ccc(-c2cc(O)c3ncccc3c2)cc1` + Cc1sc2c(c1C)C(c1ccc(Cl)cc1)=N[C@@H](CC(=O)OC(C)(C)C)c1nnc(C)n1-2 [NCGC00250412-19], the “excess over highest single agent” value amounted to 404.
Under `NC1(c2ccc(-c3nc4ccn5c(=O)[nH]nc5c4cc3-c3ccccc3)cc2)CCC1` + Cc1sc2c(c1C)C(c1ccc(Cl)cc1)=N[C@@H](CC(=O)OC(C)(C)C)c1nnc(C)n1-2 [NCGC00250412-19] stands -281; under `C/C=C(\C)C(=O)N[C@@H](c1ccccc1)[C@@H](O)C(=O)O[C@H]1C[C@@]2(O)[C@@H](OC(=O)c3ccccc3)[C@@H]3[C@]4(OC(C)=O)CO[C@@H]4C[C@H](O)[C@@]3(C)C(=O)[C@H](OC(C)=O)C(=C1C)C2(C)C` + Cc1sc2c(c1C)C(c1ccc(Cl)cc1)=N[C@@H](CC(=O)OC(C)(C)C)c1nnc(C)n1-2 [NCGC00250412-19], -68.
The value for `CC[C@@]1(O)C(=O)OCc2c1cc1n(c2=O)Cc2cc3cc(O)ccc3nc2-1` + Cc1sc2c(c1C)C(c1ccc(Cl)cc1)=N[C@@H](CC(=O)OC(C)(C)C)c1nnc(C)n1-2 [NCGC00250412-19] was -416; that for `Cc1cccc(-c2[nH]c(C(C)(C)C)nc2-c2ccc3nccnc3c2)n1` + Cc1sc2c(c1C)C(c1ccc(Cl)cc1)=N[C@@H](CC(=O)OC(C)(C)C)c1nnc(C)n1-2 [NCGC00250412-19] was 87.5; that for `Nc1cccc(S(=O)(=O)N2CCCN(S(=O)(=O)c3ccc4c(c3)OCCO4)CC2)c1` + Cc1sc2c(c1C)C(c1ccc(Cl)cc1)=N[C@@H](CC(=O)OC(C)(C)C)c1nnc(C)n1-2 [NCGC00250412-19] was -24.9.
In the case of `CC[C@H](C)n1cc(C)c2c(C(=O)NCc3c(C)cc(C)[nH]c3=O)cc(-c3ccc(N4CCNCC4)nc3)cc21` + Cc1sc2c(c1C)C(c1ccc(Cl)cc1)=N[C@@H](CC(=O)OC(C)(C)C)c1nnc(C)n1-2 [NCGC00250412-19], the “excess over highest single agent” value is -78.6.
For `CC1(CN2CCC(n3c(=O)[nH]c4ccccc43)CC2)OCc2ccccc2-n2cccc21` (configuration not stated) + Cc1sc2c(c1C)C(c1ccc(Cl)cc1)=N[C@@H](CC(=O)OC(C)(C)C)c1nnc(C)n1-2 [NCGC00250412-19], the “excess over highest single agent” value was -142.
